According to publication PMC4764899:
No constants are given. Whether binding was seen depends on the method and setting. In cells and extracts the contact can be indirect. Some binding calls cover weakened binding; strength is not graded here. For some assays here: Tags and fused reporters may be left off the sequences shown.

Sequences of proteins named here, by UniProt entry; tags and fusion partners are left off. Residues count along the entry.
UniProt P61289: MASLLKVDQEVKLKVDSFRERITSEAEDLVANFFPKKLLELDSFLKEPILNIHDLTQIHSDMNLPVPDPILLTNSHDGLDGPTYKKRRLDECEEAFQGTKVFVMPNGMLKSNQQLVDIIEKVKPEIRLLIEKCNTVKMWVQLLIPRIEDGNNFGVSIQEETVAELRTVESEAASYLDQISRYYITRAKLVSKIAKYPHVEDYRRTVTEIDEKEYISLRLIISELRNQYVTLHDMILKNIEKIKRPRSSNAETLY
UniProt P15307: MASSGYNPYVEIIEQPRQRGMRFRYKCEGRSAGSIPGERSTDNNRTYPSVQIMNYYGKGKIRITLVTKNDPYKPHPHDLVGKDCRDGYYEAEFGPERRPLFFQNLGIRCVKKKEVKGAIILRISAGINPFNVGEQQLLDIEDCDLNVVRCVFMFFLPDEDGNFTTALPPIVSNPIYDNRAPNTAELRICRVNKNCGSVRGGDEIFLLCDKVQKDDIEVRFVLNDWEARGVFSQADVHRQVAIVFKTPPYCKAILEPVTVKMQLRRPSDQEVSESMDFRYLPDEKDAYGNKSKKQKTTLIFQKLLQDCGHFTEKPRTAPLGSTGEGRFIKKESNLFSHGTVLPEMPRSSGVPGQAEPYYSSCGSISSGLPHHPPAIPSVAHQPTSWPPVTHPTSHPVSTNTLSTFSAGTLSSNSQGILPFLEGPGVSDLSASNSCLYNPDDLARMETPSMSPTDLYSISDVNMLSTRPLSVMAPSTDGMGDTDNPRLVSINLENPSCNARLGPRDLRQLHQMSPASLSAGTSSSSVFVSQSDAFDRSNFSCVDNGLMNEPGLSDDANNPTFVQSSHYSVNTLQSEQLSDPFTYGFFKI
UniProt P25963: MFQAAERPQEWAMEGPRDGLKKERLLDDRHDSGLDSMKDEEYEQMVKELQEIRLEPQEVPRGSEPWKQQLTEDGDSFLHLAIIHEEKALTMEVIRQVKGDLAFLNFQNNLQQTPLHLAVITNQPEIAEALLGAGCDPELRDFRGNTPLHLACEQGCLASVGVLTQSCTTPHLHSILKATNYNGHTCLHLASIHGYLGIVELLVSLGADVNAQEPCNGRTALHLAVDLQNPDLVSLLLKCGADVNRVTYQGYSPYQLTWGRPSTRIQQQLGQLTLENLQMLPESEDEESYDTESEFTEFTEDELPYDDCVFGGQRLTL
UniProt P19838, residues 1-433: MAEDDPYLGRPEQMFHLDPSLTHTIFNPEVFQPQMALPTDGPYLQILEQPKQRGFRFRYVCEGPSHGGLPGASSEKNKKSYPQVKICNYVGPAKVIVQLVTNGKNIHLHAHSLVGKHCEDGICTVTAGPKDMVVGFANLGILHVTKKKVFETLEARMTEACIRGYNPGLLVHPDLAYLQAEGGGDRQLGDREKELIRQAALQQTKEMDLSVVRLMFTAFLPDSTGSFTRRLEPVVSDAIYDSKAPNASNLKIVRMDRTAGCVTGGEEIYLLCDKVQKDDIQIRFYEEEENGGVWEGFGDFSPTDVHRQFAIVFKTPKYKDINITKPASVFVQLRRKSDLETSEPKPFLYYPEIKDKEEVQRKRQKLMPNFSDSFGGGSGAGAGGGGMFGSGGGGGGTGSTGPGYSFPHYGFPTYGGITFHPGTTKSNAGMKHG
UniProt P25799, residues 1-431: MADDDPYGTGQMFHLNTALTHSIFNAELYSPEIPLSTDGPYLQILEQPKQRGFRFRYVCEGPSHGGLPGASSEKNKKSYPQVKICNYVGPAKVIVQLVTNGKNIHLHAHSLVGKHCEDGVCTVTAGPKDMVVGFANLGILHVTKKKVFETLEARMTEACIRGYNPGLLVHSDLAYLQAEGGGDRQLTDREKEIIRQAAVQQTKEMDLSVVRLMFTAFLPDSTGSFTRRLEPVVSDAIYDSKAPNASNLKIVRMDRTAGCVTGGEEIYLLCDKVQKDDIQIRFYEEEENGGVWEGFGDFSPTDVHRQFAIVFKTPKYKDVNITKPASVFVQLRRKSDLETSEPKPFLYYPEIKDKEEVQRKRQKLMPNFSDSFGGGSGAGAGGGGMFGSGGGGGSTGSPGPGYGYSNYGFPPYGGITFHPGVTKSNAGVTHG
UniProt Q04206: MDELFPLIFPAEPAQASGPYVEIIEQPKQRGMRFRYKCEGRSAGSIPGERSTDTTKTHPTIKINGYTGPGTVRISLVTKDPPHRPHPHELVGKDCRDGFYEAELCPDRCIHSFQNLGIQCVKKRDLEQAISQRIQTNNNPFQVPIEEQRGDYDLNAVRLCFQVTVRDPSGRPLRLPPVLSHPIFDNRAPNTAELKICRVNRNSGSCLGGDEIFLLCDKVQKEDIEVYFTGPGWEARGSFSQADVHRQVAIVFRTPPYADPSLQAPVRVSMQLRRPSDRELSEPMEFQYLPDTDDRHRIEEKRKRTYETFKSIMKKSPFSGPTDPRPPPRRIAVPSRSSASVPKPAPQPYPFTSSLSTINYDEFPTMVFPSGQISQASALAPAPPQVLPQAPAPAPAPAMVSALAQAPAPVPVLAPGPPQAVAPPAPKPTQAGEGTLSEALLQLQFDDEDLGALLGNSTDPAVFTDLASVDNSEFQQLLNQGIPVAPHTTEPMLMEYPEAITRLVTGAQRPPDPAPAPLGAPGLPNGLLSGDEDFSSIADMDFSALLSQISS
UniProt Q04207: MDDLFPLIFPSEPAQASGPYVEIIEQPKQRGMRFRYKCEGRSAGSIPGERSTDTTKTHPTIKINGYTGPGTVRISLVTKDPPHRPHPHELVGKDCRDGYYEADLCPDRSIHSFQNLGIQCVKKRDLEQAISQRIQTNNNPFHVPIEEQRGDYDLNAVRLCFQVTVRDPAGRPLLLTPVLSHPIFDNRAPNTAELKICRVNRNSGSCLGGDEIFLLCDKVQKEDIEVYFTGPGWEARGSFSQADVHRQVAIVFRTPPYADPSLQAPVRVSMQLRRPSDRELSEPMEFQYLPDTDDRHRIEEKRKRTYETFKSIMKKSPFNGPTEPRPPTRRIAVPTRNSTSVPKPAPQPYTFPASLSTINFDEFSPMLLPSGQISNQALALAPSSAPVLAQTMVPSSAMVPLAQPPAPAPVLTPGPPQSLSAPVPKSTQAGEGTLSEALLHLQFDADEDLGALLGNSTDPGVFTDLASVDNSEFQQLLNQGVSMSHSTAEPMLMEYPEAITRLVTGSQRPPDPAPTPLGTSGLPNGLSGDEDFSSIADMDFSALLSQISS

T1: IκBɛ (endogenous, murine colon epithelial cells) (mouse (endogenous in colon epithelial cells)) (UniProt O54910)
T1 sequence: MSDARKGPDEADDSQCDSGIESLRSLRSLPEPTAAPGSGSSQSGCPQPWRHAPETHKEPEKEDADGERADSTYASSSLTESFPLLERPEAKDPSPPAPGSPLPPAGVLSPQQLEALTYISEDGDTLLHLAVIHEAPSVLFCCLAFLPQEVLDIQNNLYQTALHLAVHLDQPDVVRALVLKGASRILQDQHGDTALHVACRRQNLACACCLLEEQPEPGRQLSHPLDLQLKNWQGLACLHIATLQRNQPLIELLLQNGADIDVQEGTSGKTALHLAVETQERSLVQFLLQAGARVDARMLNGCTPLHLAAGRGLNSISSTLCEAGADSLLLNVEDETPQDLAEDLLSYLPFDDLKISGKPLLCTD

T2: IκBɛ (endogenous, HCT116 cells) (human (endogenous in HCT116)) (UniProt O00221)
T2 sequence: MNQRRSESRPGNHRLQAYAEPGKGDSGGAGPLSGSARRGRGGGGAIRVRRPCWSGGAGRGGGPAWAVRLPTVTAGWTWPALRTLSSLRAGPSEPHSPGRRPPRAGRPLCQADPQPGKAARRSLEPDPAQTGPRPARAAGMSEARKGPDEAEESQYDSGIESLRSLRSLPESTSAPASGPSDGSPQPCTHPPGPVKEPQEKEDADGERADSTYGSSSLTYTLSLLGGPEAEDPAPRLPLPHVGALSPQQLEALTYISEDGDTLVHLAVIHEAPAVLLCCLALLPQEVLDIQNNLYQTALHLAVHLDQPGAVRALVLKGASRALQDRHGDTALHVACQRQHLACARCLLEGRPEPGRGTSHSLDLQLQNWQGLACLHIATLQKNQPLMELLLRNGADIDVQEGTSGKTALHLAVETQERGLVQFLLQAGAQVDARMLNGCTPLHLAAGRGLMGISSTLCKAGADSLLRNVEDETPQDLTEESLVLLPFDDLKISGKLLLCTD


Legend:
[1] = target: T1, IκBɛ (endogenous, murine colon epithelial cells) (mouse (endogenous in colon epithelial cells)); assay: co-IP; colon epithelial cells from WT and REGγ-/- mice with or without prior exposure to DSS; IP with IκBɛ antibody, immunoblot
GST-REGγ = GST-REGγ (UniProt P61289); assay: pull-down; lysate of 293T cells transiently transfected with flag-IκBɛ, IκBα or IκBβ and GST-REGγ; GST-REGγ as bait; the text calls it co-immunoprecipitation
[2] = target: T2, IκBɛ (endogenous, HCT116 cells) (human (endogenous in HCT116)); assay: co-IP; HCT116 shN and shR (REGγ knockdown) cells; IP with an anti-IκBɛ antibody

Molecule	binding [1]	binding [2]	also measured
cRel (endogenous, murine colon epithelial cells) (from UniProt P15307 1-587)	binds	–	–
flag-IκBα (from UniProt P25963 1-317)	–	–	binding (GST-REGγ): no binding
p50 (endogenous, HCT116 cells) (from UniProt P19838 1-433)	–	no binding	–
p50 (endogenous, murine colon epithelial cells) (from UniProt P25799 1-431)	no binding	–	–
p65 (endogenous, HCT116 cells) (from UniProt Q04206 1-551)	–	binds	–
p65 (endogenous, murine colon epithelial cells) (from UniProt Q04207 1-549)	binds	–	–
cRel (endogenous, HCT116 cells) (protein, UniProt Q04864 1-619) MASGAYNPYIEIIEQPRQRGMRFRYKCEGRSAGSIPGEHSTDNNRTYPSIQIMNYYGKGKVRITLVTKNDPYKPHPHDLVGKDCRDGYYEAEFGQERRPLFFQNLGIRCVKKKEVKEAIITRIKAGINPFNVPEKQLNDIEDCDLNVVRLCFQVFLPDEHGNLTTALPPVVSNPIYDNRAPNTAELRICRVNKNCGSVRGGDEIFLLCDKVQKDDIEVRFVLNDWEAKGIFSQADVHRQVAIVFKTPPYCKAITEPVTVKMQLRRPSDQEVSESMDFRYLPDEKDTYGNKAKKQKTTLLFQKLCQDHVETGFRHVDQDGLELLTSGDPPTLASQSAGITVNFPERPRPGLLGSIGEGRYFKKEPNLFSHDAVVREMPTGVSSQAESYYPSPGPISSGLSHHASMAPLPSSSWSSVAHPTPRSGNTNPLSSFSTRTLPSNSQGIPPFLRIPVGNDLNASNACIYNNADDIVGMEASSMPSADLYGISDPNMLSNCSVNMMTTSSDSMGETDNPRLLSMNLENPSCNSVLDPRDLRQLHQMSSSSMSAGANSNTTVFVSQSDAFEGSDFSCADNSMINESGPSNSTNPNSHGFVQDSQYSGIGSMQNEQLSDSFPYEFFQV	–	binds	–
flag-IκBβ (protein, UniProt Q15653 1-356) MAGVACLGKAADADEWCDSGLGSLGPDAAAPGGPGLGAELGPGLSWAPLVFGYVTEDGDTALHLAVIHQHEPFLDFLLGFSAGTEYMDLQNDLGQTALHLAAILGETSTVEKLYAAGAGLCVAERRGHTALHLACRVGAHACARALLQPRPRRPREAPDTYLAQGPDRTPDTNHTPVALYPDSDLEKEEEESEEDWKLQLEAENYEGHTPLHVAVIHKDVEMVRLLRDAGADLDKPEPTCGRSPLHLAVEAQAADVLELLLRAGANPAARMYGGRTPLGSAMLRPNPILARLLRAHGAPEPEGEDEKSGPCSSSSDSDSGDEGDEYDDIVVHSSRSQTRLPPTPASKPLPDDPRPV	–	–	binding (GST-REGγ): no binding
